PubChem BioAssay AID504791 – Drosophila RNAi Screening Center, 2011
The deposit covers about 23,000 reagents; shown is a random part of those with a known target gene and a result. Over the whole deposit, 199 (0.86%) were called active. 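Plate-scaled ratios behind the calls are not deposited; printed light signals are raw; many rows marked increased or decreased are still called inactive.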 Names joined by + are all predicted targets of the reagent.

Aim: 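Genes of the fly required for silencing by miRNA, siRNA or endo-siRNA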 (primary screen)
Cell system: Drosophila S2-derived reporter cells
Reagents: long dsRNA against Drosophila genes, about 150-250 ng dsRNA per well (siRNA assay); about 80-120 ng (miRNA assay)
Time to read-out: about 5 days (siRNA assay); about 4 days (miRNA assay)
Conditions: copper sulfate induction of reporters: 25 µM (siRNA assay); 200 mM stated (miRNA assay), 1-2 days before reading
Measured: 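Per-well ratio of Renilla over firefly light, expressed relative to that plate's average ratio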
Reading the numbers: siRNA reporter hit score: higher = 3 marks a strong hit with raised ratio; -3 a strong hit with lowered ratio
Units: stable assay Renilla, run 1 in luminescence; stable assay firefly, run 1 in luminescence
Hit rule: 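First-pass picks had plate-scaled ratios over 1.5 for the siRNA assay, over 1.6 for the miRNA assay, or under 0.6; two distinct dsRNAs had to score alike on retest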

{"Target gene": "Cpr62Bb", "DRSC id": "DRSC08404", "stable assay Renilla, run 1": 5816, "stable assay firefly, run 1": 3.55e5, "Outcome": "inactive"}
{"Target gene": "CG4049", "DRSC id": "DRSC04443", "stable assay Renilla, run 1": 5404, "stable assay firefly, run 1": 2.84e5, "Outcome": "inactive"}
{"Target gene": "CycY", "DRSC id": "DRSC02420", "stable assay Renilla, run 1": 29461, "stable assay firefly, run 1": 4.48e5, "Outcome": "inactive"}
{"Target gene": "CG12016 + Dpm2", "DRSC id": "DRSC08224", "stable assay Renilla, run 1": 6808, "stable assay firefly, run 1": 3.04e5, "Outcome": "inactive"}
{"Target gene": "Nup44A", "DRSC id": "DRSC07248", "stable assay Renilla, run 1": 6198, "stable assay firefly, run 1": 3.59e5, "Outcome": "inactive"}
{"Target gene": "Naa80", "DRSC id": "DRSC16429", "siRNA reporter hit score": 3, "stable assay Renilla, run 1": 6111, "stable assay firefly, run 1": 3.55e5, "Outcome": "inactive"}
{"Target gene": "Polr1F", "DRSC id": "DRSC02278", "stable assay Renilla, run 1": 10813, "stable assay firefly, run 1": 9.55e5, "Outcome": "inactive"}
{"Target gene": "CG17999", "DRSC id": "DRSC04300", "stable assay Renilla, run 1": 1.31e5, "stable assay firefly, run 1": 4.43e5, "Outcome": "inactive"}
{"Target gene": "Sps1", "DRSC id": "DRSC07549", "stable assay Renilla, run 1": 6371, "stable assay firefly, run 1": 3.83e5, "Outcome": "inactive"}
{"Target gene": "CG33493", "DRSC id": "DRSC10642", "stable assay Renilla, run 1": 5496, "stable assay firefly, run 1": 3.16e5, "Outcome": "inactive"}
{"Target gene": "Fs(2)Ket", "DRSC id": "DRSC03328", "stable assay Renilla, run 1": 13442, "stable assay firefly, run 1": 5.26e5, "Outcome": "inactive"}
{"Target gene": "CG13325", "DRSC id": "DRSC06362", "stable assay Renilla, run 1": 8270, "stable assay firefly, run 1": 4.08e5, "Outcome": "inactive"}
{"Target gene": "Hey", "DRSC id": "DRSC07440", "stable assay Renilla, run 1": 5387, "stable assay firefly, run 1": 2.21e5, "Outcome": "inactive"}
{"Target gene": "Hey", "DRSC id": "DRSC23030", "stable assay Renilla, run 1": 5052, "stable assay firefly, run 1": 3.06e5, "Outcome": "inactive"}
{"Target gene": "Mfe2", "DRSC id": "DRSC19869", "stable assay Renilla, run 1": 7940, "stable assay firefly, run 1": 4.34e5, "Outcome": "inactive"}
{"Target gene": "CG34406 (retired record)", "DRSC id": "DRSC00523", "stable assay Renilla, run 1": 39764, "stable assay firefly, run 1": 1.75e5, "Outcome": "inactive"}
{"Target gene": "CG34406 (retired record)", "DRSC id": "DRSC00606", "stable assay Renilla, run 1": 7827, "stable assay firefly, run 1": 4.78e5, "Outcome": "inactive"}

4 of these entries, set out differently.
Target gene	DRSC id	siRNA reporter hit score	miRNA reporter change	stable assay Renilla, run 1	stable assay firefly, run 1	Outcome
CG17999	DRSC04300			1.31e5	4.43e5	inactive
Sps1	DRSC07549			6371	3.83e5	inactive
CG33493	DRSC10642			5496	3.16e5	inactive
Fs(2)Ket	DRSC03328			13442	5.26e5	inactive

More results follow:
{"Target gene": "Nepl17", "DRSC id": "DRSC14880", "stable assay Renilla, run 1": 6387, "stable assay firefly, run 1": 3.23e5, "Outcome": "inactive"}
{"Target gene": "CG30378", "DRSC id": "DRSC05071", "stable assay Renilla, run 1": 5378, "stable assay firefly, run 1": 4.32e5, "Outcome": "inactive"}
{"Target gene": "CG15212", "DRSC id": "DRSC10212", "stable assay Renilla, run 1": 6096, "stable assay firefly, run 1": 4.07e5, "Outcome": "inactive"}
{"Target gene": "blw", "DRSC id": "DRSC04675", "stable assay Renilla, run 1": 4219, "stable assay firefly, run 1": 2.35e5, "Outcome": "inactive"}
{"Target gene": "Rev1", "DRSC id": "DRSC08264", "stable assay Renilla, run 1": 12404, "stable assay firefly, run 1": 4.29e5, "Outcome": "inactive"}
{"Target gene": "Zip48C", "DRSC id": "DRSC06314", "stable assay Renilla, run 1": 6907, "stable assay firefly, run 1": 3.60e5, "Outcome": "inactive"}
{"Target gene": "CG13135", "DRSC id": "DRSC02232", "stable assay Renilla, run 1": 6484, "stable assay firefly, run 1": 3.00e5, "Outcome": "inactive"}
{"Target gene": "CG8249", "DRSC id": "DRSC07125", "stable assay Renilla, run 1": 6091, "stable assay firefly, run 1": 3.52e5, "Outcome": "inactive"}
{"Target gene": "stg", "DRSC id": "DRSC17071", "miRNA reporter change": "reporter ratio lowered past the hit cutoff", "stable assay Renilla, run 1": 5603, "stable assay firefly, run 1": 3.82e5, "Outcome": "active"}
{"Target gene": "Spt6", "DRSC id": "DRSC18836", "stable assay Renilla, run 1": 3615, "stable assay firefly, run 1": 2.66e5, "Outcome": "inactive"}
{"Target gene": "mesh", "DRSC id": "DRSC14472", "stable assay Renilla, run 1": 3056, "stable assay firefly, run 1": 4.09e5, "Outcome": "inactive"}
{"Target gene": "mesh", "DRSC id": "DRSC15098", "stable assay Renilla, run 1": 6466, "stable assay firefly, run 1": 3.85e5, "Outcome": "inactive"}
{"Target gene": "mesh", "DRSC id": "DRSC15099", "stable assay Renilla, run 1": 5832, "stable assay firefly, run 1": 3.15e5, "Outcome": "inactive"}
